From patent publication US8421457B2, “Methods and systems for magnetically resonating both a subject and a substance administered to the subject” (Applied Magnetics, LLC, priority 2008, dated 2013) come the findings set out here.

In this assay the test system is fibromyalgia patients. The assay can be described thus: Case reports: fibromyalgia, drugs combined with MR treatment. It counts as in vivo, human. Particulars: same subject; thirteen MR treatments within a two-month period. As for the experimental part: In one example, a person experienced fibromyalgia for a number of years. The subject also experienced insomnia, restless legs, and chronic fatigue. The subject took the drug Naproxen (Aleve). The subject received seven consecutive days of 1 to 1.5 hour treatments.
Their primary complaint was back pain. […] The subject received thirteen treatments within a two-month period. […] Approximately two months after completing their first series of treatment, they began a second regimen of ten treatments within a two-month period.
In a further example, a person at least fifty years old suffered from fibromyalgia for a number of years. […] The subject received daily (when possible) treatments for approximately one year.

For the molecule `COC(=O)C1=C(C)NC(C)=C(C(=O)OC)C1c1ccccc1[N+](=O)[O-]` [Nifedipine], the “pain level after treatment, first series” value is on record as 0.5.
